Patent publication US20210163945, “APTAMERS FOR TARGETING COAGULATION FACTOR XIII AND USES THEREOF” (Chang Gung University, published 2021)
Results from cells or extracts need not show a direct contact. Protein sequences can lack the tags named with them.

Molecular target: T1, Coagulation factor XIII on activated platelets (Homo sapiens) (UniProt P00488)
T1 sequence (looked up, limits assumed): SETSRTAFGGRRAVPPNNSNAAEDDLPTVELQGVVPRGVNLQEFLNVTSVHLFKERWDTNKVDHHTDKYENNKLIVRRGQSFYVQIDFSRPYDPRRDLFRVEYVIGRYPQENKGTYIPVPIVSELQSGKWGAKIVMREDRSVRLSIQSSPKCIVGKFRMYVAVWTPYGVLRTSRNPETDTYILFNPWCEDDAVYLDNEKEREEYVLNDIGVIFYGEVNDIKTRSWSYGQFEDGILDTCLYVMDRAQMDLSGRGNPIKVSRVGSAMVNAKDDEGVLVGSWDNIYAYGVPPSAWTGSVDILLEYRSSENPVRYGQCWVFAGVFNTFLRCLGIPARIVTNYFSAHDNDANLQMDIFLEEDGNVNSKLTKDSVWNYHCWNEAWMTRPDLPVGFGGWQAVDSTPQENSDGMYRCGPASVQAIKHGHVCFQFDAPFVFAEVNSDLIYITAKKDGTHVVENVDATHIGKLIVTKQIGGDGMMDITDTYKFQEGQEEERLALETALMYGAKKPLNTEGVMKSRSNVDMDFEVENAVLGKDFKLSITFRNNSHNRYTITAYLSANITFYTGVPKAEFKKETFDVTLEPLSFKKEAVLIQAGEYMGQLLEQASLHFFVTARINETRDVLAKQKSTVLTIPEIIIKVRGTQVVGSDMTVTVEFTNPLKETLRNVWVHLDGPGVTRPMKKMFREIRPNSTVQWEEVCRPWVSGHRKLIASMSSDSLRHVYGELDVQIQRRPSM
Test: flow cytometry
Details: also fibrin/activated platelets by confocal microscopy, no significant binding to un-activated platelets, protein on the cell surface, protein details: TRAP-activated human platelets, label: FAM or biotin, single-stranded DNA

CGCAGCATCATTCGGGTCGGGAAGGGGTGTACGGGGCTGCG [FAT2]
binding result: binds
